This series in a line: general procedure: Boc solid-phase peptide synthesis; MBHA resin (Bachem); DIC/HOBt. The conditions noted are these: whole synthesis, scale of the general procedure about 9.3 grams (0.54 mmol) of MBHA resin.

Strings that start with PEPTIDE1 are HELM notation: dots part the residues, brackets hold end groups and non-standard residues.

As for “PEPTIDE1{[ac].[D-2Nal].[D-4Cpa].[D-Dpr(MeCbm)].S.[4Aph(Ac)].[D-4Aph(Ac)].L.[ILys].P.[dA].[am]}$$$$V2.0”, the “final purity (method not given)” value (CZE) is recorded as “about 100%”.
For the substance “PEPTIDE1{[ac].[D-2Nal].[D-4Cpa].[D-Dpr(Cbm)].S.[4Aph(Ac)].[D-4Aph(Ac)].L.[ILys].P.[dA].[am]}$$$$V2.0”, the “final purity (method not given)” value (capillary zone electrophoresis (CZE)) is given as “greater than 98%”.

Values taken from patent publication US5821230A (Ferring BV, priority 1997, dated 1998).
